# From the supplement of paper PMC4604168 (melanoma cell lines)
# This is one part of the list. Repeats are few or missing, and single values can be far off.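 The apoptosis fraction was the count of cleaved-PARP antibody-stained nuclei relative to all DNA-stained nuclei, imaged in 1,536-well plates. Screening doses were set so most cells survived, and baseline and induced cleaved-PARP levels vary greatly across cell lines.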
# What was measured:
# Assay in all cases: cleaved PARP positive nuclei fraction relative to DMSO control; melanoma cells; higher = more apoptosis
# Conditions in all cases: library dose: low library concentration; 72 h
# MZ2-MEL = test system: MZ2-MEL
# MeWo = test system: MeWo
# RPMI7951 = test system: RPMI7951
# RVH-421 = test system: RVH-421
# SkMel28 = test system: SkMel28
# SkMel2 = test system: SkMel2
# SkMel30 = test system: SkMel30
# UACC62 = test system: UACC62
Structure (SMILES),cleaved PARP positive nuclei fraction (MZ2-MEL) [%],cleaved PARP positive nuclei fraction (MeWo) [%],cleaved PARP positive nuclei fraction (RPMI7951) [%],cleaved PARP positive nuclei fraction (RVH-421) [%],cleaved PARP positive nuclei fraction (SkMel28) [%],cleaved PARP positive nuclei fraction (SkMel2) [%],cleaved PARP positive nuclei fraction (SkMel30) [%],cleaved PARP positive nuclei fraction (UACC62) [%]
"CCN(CC)CCNC(=O)c1c(C)[nH]c(/C=C2\C(=O)Nc3ccc(F)cc32)c1C [sunitinib] + O=C(O)c1ccc2c(c1)nc(Nc1cccc(Cl)c1)c1ccncc12 [CX4945] (first compound 0.4 µM, partner dose 0.4 µM)",41.7,122,208,199,105,29,338,280
"CCN(CC)CCNC(=O)c1c(C)[nH]c(/C=C2\C(=O)Nc3ccc(F)cc32)c1C [sunitinib] + C[C@]1(c2nc3c(C(N)=O)cccc3[nH]2)CCCN1 [Veliparib] (first compound 0.4 µM, partner dose 1.4 µM)",113,82.1,68.3,75.4,94.8,43.9,73.4,78.1
"CC1(C)CCC(c2ccc(Cl)cc2)=C(CN2CCN(c3ccc(C(=O)NS(=O)(=O)c4ccc(N[C@H](CCN5CCOCC5)CSc5ccccc5)c(S(=O)(=O)C(F)(F)F)c4)cc3)CC2)C1 + C[C@@H](Oc1cc(-c2cnn(C3CCNCC3)c2)cnc1N)c1c(Cl)ccc(F)c1Cl [Crizotinib] (first compound 0.4 µM, partner dose 0.2 µM)",386,637,147,227,33.2,110,297,141
"CN(c1ncccc1CNc1nc(Nc2ccc3c(c2)CC(=O)N3)ncc1C(F)(F)F)S(C)(=O)=O + C[C@@H](Oc1cc(-c2cnn(C3CCNCC3)c2)cnc1N)c1c(Cl)ccc(F)c1Cl [Crizotinib] (first compound 0.08 µM, partner dose 0.2 µM)",242,135,85.7,104,43.6,269,79.8,133
"C[C@@H](N)c1ccc(C(=O)Nc2ccnc3[nH]ccc23)cc1 + C=CCNC1=C2C[C@@H](C)C[C@H](OC)[C@H](O)[C@@H](C)/C=C(\C)[C@H](OC(N)=O)[C@@H](OC)/C=C\C=C(/C)C(=O)NC(=CC1=O)C2=O [Tanespimycin] (first compound 0.4 µM, partner dose 0.002 µM)",200,435,134,156,30.9,101,86.6,306
"NC1(c2ccc(-c3nc4ccn5c(=O)[nH]nc5c4cc3-c3ccccc3)cc2)CCC1 + CS(=O)(=O)CCNCc1ccc(-c2ccc3ncnc(Nc4ccc(OCc5cccc(F)c5)c(Cl)c4)c3c2)o1 [lapatinib] (first compound 0.4 µM, partner dose 0.8 µM)",178,115,138,47.8,170,46.5,125,202
"CN(c1ncccc1CNc1nc(Nc2ccc3c(c2)CC(=O)N3)ncc1C(F)(F)F)S(C)(=O)=O + Nc1ncn([C@H]2C[C@H](O)[C@@H](CO)O2)c(=O)n1 [decitabine] (first compound 0.08 µM, partner dose 0.1 µM)",66.5,77.4,55.6,158,78.2,175,69,60.3
"CC1(C)CCC(c2ccc(Cl)cc2)=C(CN2CCN(c3ccc(C(=O)NS(=O)(=O)c4ccc(N[C@H](CCN5CCOCC5)CSc5ccccc5)c(S(=O)(=O)C(F)(F)F)c4)cc3)CC2)C1 + C[C@@H](N)c1ccc(C(=O)Nc2ccnc3[nH]ccc23)cc1 [RKI983] (first compound 0.4 µM, partner dose 0.4 µM)",477,2840,432,419,163,222,184,249
"C[C@@H](N)c1ccc(C(=O)Nc2ccnc3[nH]ccc23)cc1 + CC(C)C[C@H](NC(=O)[C@H](Cc1ccccc1)NC(=O)c1cnccn1)B(O)O [Bortezomib] (first compound 0.4 µM, partner dose 0.001 µM)",75.1,510,49.1,181,125,167,88.5,279
"CS(=O)(=O)c1ccc(C(=O)Nc2ccc(Cl)c(-c3ccccn3)c2)c(Cl)c1 [vismodegib] + Clc1ccc(Nc2nnc(Cc3ccncc3)c3ccccc23)cc1 [vatalanib] (first compound 1 µM, partner dose 2 µM)",99.3,119,223,172,74,133,62.7,201
"C[C@]1(O)C[C@@H](c2nc(-c3ccc4ccc(-c5ccccc5)nc4c3)c3c(N)nccn32)C1 + C#Cc1cccc(Nc2ncnc3cc(OCCOC)c(OCCOC)cc23)c1 [erlotinib] (first compound 0.4 µM, partner dose 0.8 µM)",142,90.4,199,124,69.8,87.1,60.1,43.5
"NC1(c2ccc(-c3nc4ccn5c(=O)[nH]nc5c4cc3-c3ccccc3)cc2)CCC1 + C[C@@H](Oc1cc(-c2cnn(C3CCNCC3)c2)cnc1N)c1c(Cl)ccc(F)c1Cl [Crizotinib] (first compound 0.4 µM, partner dose 0.2 µM)",178,112,195,133,127,35.6,388,189
"Cn1sc(=O)n(Cc2ccccc2)c1=O + NC(=O)c1ccc(N(C(N)=O)c2c(F)cccc2F)nc1-c1ccc(F)cc1F [VX702] (first compound 0.4 µM, partner dose 0.4 µM)",75,216,53.9,113,77.4,3050,57.4,74.1
"CC(=O)O[C@@]12CO[C@@H]1C[C@H](O)[C@@]1(C)C(=O)[C@H](O)C3=C(C)[C@@H](OC(=O)[C@H](O)[C@@H](NC(=O)OC(C)(C)C)c4ccccc4)C[C@@](O)([C@@H](OC(=O)c4ccccc4)[C@H]21)C3(C)C [Docetaxel] + OCc1c[nH]c2ccccc12 [Indole-3-carbinol] (first compound 0.0001 µM, partner dose 0.8 µM)",345,817,288,162,240,668,250,600
"CC1(C)CCC(c2ccc(Cl)cc2)=C(CN2CCN(c3ccc(C(=O)NS(=O)(=O)c4ccc(N[C@H](CCN5CCOCC5)CSc5ccccc5)c(S(=O)(=O)C(F)(F)F)c4)cc3)CC2)C1 + CCN(CC)CCNC(=O)c1c(C)[nH]c(/C=C2\C(=O)Nc3ccc(F)cc32)c1C [sunitinib] (first compound 0.4 µM, partner dose 0.4 µM)",202,554,181,164,179,142,179,147
"NC1(c2ccc(-c3nc4ccn5c(=O)[nH]nc5c4cc3-c3ccccc3)cc2)CCC1 + CCCS(=O)(=O)Nc1ccc(F)c(C(=O)c2c[nH]c3ncc(Cl)cc23)c1F [PLX4720] (first compound 0.4 µM, partner dose 0.08 µM)",69.8,150,112,326,316,69.2,167,416
"NC1(c2ccc(-c3nc4ccn5c(=O)[nH]nc5c4cc3-c3ccccc3)cc2)CCC1 + OCc1c[nH]c2ccccc12 [Indole-3-carbinol] (first compound 0.4 µM, partner dose 0.8 µM)",69.7,93.9,52.6,134,61.5,81.5,72.4,87.7
"CN(c1ncccc1CNc1nc(Nc2ccc3c(c2)CC(=O)N3)ncc1C(F)(F)F)S(C)(=O)=O + CC(C)C[C@H](NC(=O)[C@H](Cc1ccccc1)NC(=O)c1cnccn1)B(O)O [Bortezomib] (first compound 0.08 µM, partner dose 0.001 µM)",126,49.8,64,101,185,92.7,36.7,104
"CCN(CC)CCNC(=O)c1c(C)[nH]c(/C=C2\C(=O)Nc3ccc(F)cc32)c1C [sunitinib] + Nc1ncn([C@H]2C[C@H](O)[C@@H](CO)O2)c(=O)n1 [decitabine] (first compound 0.4 µM, partner dose 0.1 µM)",88.2,169,103,161,96.8,67,114,110
"CCN(CC)CCNC(=O)c1c(C)[nH]c(/C=C2\C(=O)Nc3ccc(F)cc32)c1C [sunitinib] + C#Cc1cccc(Nc2ncnc3cc(OCCOC)c(OCCOC)cc23)c1 [erlotinib] (first compound 0.4 µM, partner dose 0.8 µM)",91.8,61,121,104,85.7,52.6,92.3,136
"CS(=O)(=O)c1ccc(C(=O)Nc2ccc(Cl)c(-c3ccccn3)c2)c(Cl)c1 [vismodegib] + CN(c1ncccc1CNc1nc(Nc2ccc3c(c2)CC(=O)N3)ncc1C(F)(F)F)S(C)(=O)=O [PF562271] (first compound 1 µM, partner dose 0.08 µM)",70,312,108,158,39.9,82,69,228

# Two records picked at random from those above:
Structure (SMILES),cleaved PARP positive nuclei fraction (MZ2-MEL) [%],cleaved PARP positive nuclei fraction (MeWo) [%],cleaved PARP positive nuclei fraction (RPMI7951) [%],cleaved PARP positive nuclei fraction (RVH-421) [%],cleaved PARP positive nuclei fraction (SkMel28) [%],cleaved PARP positive nuclei fraction (SkMel2) [%],cleaved PARP positive nuclei fraction (SkMel30) [%],cleaved PARP positive nuclei fraction (UACC62) [%]
"CN(c1ncccc1CNc1nc(Nc2ccc3c(c2)CC(=O)N3)ncc1C(F)(F)F)S(C)(=O)=O + C[C@@H](Oc1cc(-c2cnn(C3CCNCC3)c2)cnc1N)c1c(Cl)ccc(F)c1Cl [Crizotinib] (first compound 0.08 µM, partner dose 0.2 µM)",242,135,85.7,104,43.6,269,79.8,133
"C[C@]1(O)C[C@@H](c2nc(-c3ccc4ccc(-c5ccccc5)nc4c3)c3c(N)nccn32)C1 + C#Cc1cccc(Nc2ncnc3cc(OCCOC)c(OCCOC)cc23)c1 [erlotinib] (first compound 0.4 µM, partner dose 0.8 µM)",142,90.4,199,124,69.8,87.1,60.1,43.5
